{
  "source": "patent US4064228A",
  "about": "(priority 1975, dated 1977)",
  "system": "antibody raised to azomorphine conjugate (crude antisera)",
  "format": "binding",
  "protocol": "After 2 hours, an equal volume of a neutral, saturated ammonium sulfate solution was added. The resulting precipitates, sedimented by centrifugation at 3000 rpm for 15 minutes at 4° C, were washed once in 50% saturated ammonium sulphate solution. Each precipitate was dissolved in 0.2 ml NCS solubilizer (Amersham-Searle Corp.) and transferred to a scintillation counting vial containing 10 ml. Aquasol dispersant (New England Nuclear Corp.) and counted in a Nuclear Chicago Liquid Scintillation Spectrometer.\nCross-reactivity was computed by the method of Abraham, J. Clin. Endocrin. & Metab.",
  "note": "Like-named read-outs stand apart in the source and are kept apart here.",
  "data": [
    {"compound": "CN1CC[C@]23c4c5ccc(O)c4O[C@H]2[C@@H](O)C=C[C@H]3[C@H]1C5", "note": "[Morphine, morphine]", "values": [
      {"measurement": "% Inhibition of Dihydromorphine H^3 Binding", "setting": "0.75 ng unlabeled morphine added", "value": 51, "unit": "%"},
      {"measurement": "% Inhibition of Dihydromorphine H^3 Binding", "setting": "1.0 ng unlabeled morphine added", "value": 59, "unit": "%"},
      {"measurement": "% Inhibition of Dihydromorphine H^3 Binding", "setting": "10.0 ng unlabeled morphine added", "value": 95, "unit": "%"}
    ]}
  ]
}
